Some entries share one result that the patent states for a list of compounds.
Biological target: panel of central nervous system protein binding sites defined in FIG. 8
Experiment: competitive radioligand binding panel of central nervous system protein binding sites (FIG. 8)
Conditions: all FIG. 8 protein sites; read-out: concentration required to inhibit the FIG. 8 radioligand bindings
Description: In separate in vitro competitive pharmacological assays performed in duplicate, compounds 1 and 6 at 1 micromole concentrations were evaluated against the panel of central nervous system protein binding sites that are defined in FIG. 8. As noted in FIG. 8, the assays utilized specific established radioligands for the respective competition binding assays, and respective assay ligand standards that afforded respective pharmacological inhibition binding curves of half maximal inhibitory concentration (IC50) values. […] In other words, the concentrations of compounds 1 and 6 that would be required to inhibit the FIG. 8 radioligand bindings at their respective protein sites would have to be greater than 1 micromole concentration.

Q: For N[C@@H](CC(=O)Nc1ccc2c(c1)Cc1cc(F)ccc1-2)C(=O)O [compound 6, (S)-2-Amino-4-(7-fluoro-9H-fluoren-2-ylamino)-4-oxo-butanoic acid], which IC50 is on record?
A: > 1000 nM

Q: For COC(=O)[C@@H](N)CC(=O)Nc1ccc2c(c1)Cc1cc(F)ccc1-2 [compound 1, (S)-Methyl 2-amino-4-(7-fluoro-9H-fluoren-2-ylamino)-4-oxobutanoate], which IC50 is on record?
A: > 1000 nM

— patent publication US9499472B2, “Aspartylamide inhibitors of excitatory amino acid transporters” (priority 2012, dated 2016)
